This note sets out measurements from the supplement of paper PMC3682954.

The assay relates to RAW 264.7. Nature of the assay: HMGB1-induced TNF-alpha production relative to HMGB1-stimulated control; higher = more TNF-alpha secretion (less inhibition). The settings on record: stimulus: HMGB1 5 ug/ml, 18 h.
[1] abbreviates: compound concentration: 1 ug/ml.

Counter-ions that a name gives are not always drawn. ± gives the standard deviation of the averaged measurements. Some of the results follow. Repeats are few or missing, and single values can be far off.

With `Clc1ccc(N2CCN(Cc3c[nH]c4ncccc34)CC2)cc1` [L-745,870 hydrochloride], where the note is “compound concentration: 3 uM”, the “HMGB1-induced TNF-alpha production” value was 80.2%.
Consider `CCn1cnc2c(Nc3cccc(Cl)c3)nc(N[C@@H]3CCCC[C@@H]3N)nc21`, for which, where the note is “compound concentration: 3 uM”, the “HMGB1-induced TNF-alpha production” value was found to be 76.5%.
On the same count and under the same terms, as for `NCCCNCCSP(=O)(O)O` [Amifostine], the figure is 90.7 ± 12%; as for `NCCCNCCSP(=O)(O)O`, 93.8%; as for `CC1OC(OC2/C=C/C=C/C=C/C=C/CC/C=C/C=C/[C@H](C)[C@@H](O)[C@@H](C)[C@H](C)OC(=O)CC(O)CC(O)CC(O)CCC(O)C(O)C[C@]3(O)CC(O)C(C(=O)O)C(C2)O3)C(O)C(N)C1O` (some centres undefined) [Nystatine], 59.7%.
Same read-out and setting: the figure for `O=[N+]([O-])c1ccc(O)c([N+](=O)[O-])c1` is 78.6%; for `CN1CC[C@]2(c3cccc(O)c3)Cc3nc4ccccc4cc3C[C@H]2C1` it is 52.5%; for `O=S1(=O)N(CCN2CC=C(c3c[nH]c4cc(F)ccc34)CC2)c2cccc3c2N1CCC3` it is 114%.
On the same count and under the same terms, the figure for `NCCC(O)C(=O)NC1CC(N)C(OC2OC(CN)C(O)[C@H](O)[C@@H]2N)[C@H](OC2O[C@H](CO)[C@@H](O)[C@@H]2O)[C@@H]1O` (some centres undefined) [Butirosin disulfate salt] is 98.5%; for `NCCc1c[nH]c2ccc(C(N)=O)cc12` [5-Carboxamidotryptamine maleate] it is 81.4%.
As to `C=C1[C@@H](C)[C@H]2[C@H](Cc3ccccc3)NC(=O)[C@]23OC(=O)/C=C/C(=O)CCC[C@@H](C)C/C=C/[C@H]3[C@@H]1O`, for the setting “compound concentration: 3 uM”, the “HMGB1-induced TNF-alpha production” value was found to be 79.8%.
On the same count and under the same terms, the figure for `Nc1ccc([As](=O)(O)O)cc1` is 96%.
Regarding `CN[C@@H](Cc1c[nH]c2ccccc12)C(=O)O` [L-abrine], the “HMGB1-induced TNF-alpha production” value under setting [1] was determined as 73.7%.
`CC(=O)Nc1cc([As](=O)(O)O)ccc1O`: the “HMGB1-induced TNF-alpha production” value (compound concentration: 3 uM) amounted to 88.2 ± 12%.
With `Cc1cc2c(C(C)C)c(O)c(O)c(C=O)c2c(O)c1-c1c(C)cc2c(C(C)C)c(O)c(O)c(C=O)c2c1O`, the “HMGB1-induced TNF-alpha production” value is 66.4% under setting [1] and 204% (compound concentration: 3 uM).
For `Cc1cc2c(C(C)C)c(O)c(O)c(C=O)c2c(O)c1-c1c(C)cc2c(C(C)C)c(O)c(O)c(C=O)c2c1O` [Gossypol], for the setting “compound concentration: 3 uM”, the “HMGB1-induced TNF-alpha production” value was determined as 321%.
The same measure, in the same setting: as for `CCCN1CC[C@@H]2c3cc(O)ccc3CC[C@@H]21` (racemic) [cis(+/-)-8-OH-PBZI hydrobromide], the figure is 93.1%; as for `O=c1[nH]c2ccccc2n1C1CCN(CCCC(c2ccc(F)cc2)c2ccc(F)cc2)CC1`, 78.1%.
Still for that read-out and setting: the figure for `O=c1[nH]c2ccccc2n1C1CCN(CCCC(c2ccc(F)cc2)c2ccc(F)cc2)CC1` [Pimozide] is 62.9 ± 11%; for `CC(=O)[O][Hg][c]1ccccc1` it is -1.4 ± 1.3%.
With `C=CCN1CC[C@]23CCCC[C@H]2[C@H]1Cc1ccc(O)cc13` [Levallorphan tartrate], the “HMGB1-induced TNF-alpha production” value (compound concentration: 3 uM) came out at 107%.
As for `C=CCN1CC[C@]23CCCC[C@H]2[C@H]1Cc1ccc(O)cc13` [Levallorphan], the “HMGB1-induced TNF-alpha production” value (compound concentration: 3 uM) is 119%.
On the same count and under the same terms, as for `CC(=O)NCCc1c[nH]c2ccccc12` [N-Acetyltryptamine], the figure is 86.4%.
For the compound `C[C@]12CC[C@@H](O)C[C@H]1CC[C@@H]1[C@@H]2CC[C@]2(C)C(=O)CC[C@@H]12` [3-alpha-Hydroxy-5-beta-androstan-17-one], the “HMGB1-induced TNF-alpha production” value (compound concentration: 3 uM) is 130%.
For the compound `c1cc2c(cc1[C@H]1OC[C@H]3[C@@H]1CO[C@H]3c1ccc3c(c1)OCO3)OCO2` [(-)-Asarinin], under setting [1], the “HMGB1-induced TNF-alpha production” value came to 55.2%.
Same read-out and setting: the figure for `O=C(c1ccccc1)N1CC2CC(C1)c1cccc(=O)n1C2` (centres undefined) is 79.8%.
For `C[C@@H]1O[C@@H](O[C@@H]2C=C3CC[C@@H]4[C@H](CC[C@]5(C)[C@@H](c6ccc(=O)oc6)CC[C@]45O)[C@@]3(C)CC2)[C@H](O)[C@H](O)[C@H]1O` [Proscillaridin A], the “HMGB1-induced TNF-alpha production” value (compound concentration: 3 uM) is 97%.
For the compound `C[C@@H]1O[C@@H](O[C@@H]2C=C3CC[C@@H]4[C@H](CC[C@]5(C)[C@@H](c6ccc(=O)oc6)CC[C@]45O)[C@@]3(C)CC2)[C@H](O)[C@H](O)[C@H]1O` [proscillaridin A], the “HMGB1-induced TNF-alpha production” value under setting [1] was 70.1%.
Take `C[C@@H]1O[C@@H](O[C@@H]2C=C3CC[C@@H]4[C@H](CC[C@]5(C)[C@@H](c6ccc(=O)oc6)CC[C@]45O)[C@@]3(C)CC2)[C@H](O)[C@H](O)[C@H]1O`: the “HMGB1-induced TNF-alpha production” value (compound concentration: 3 uM) turned out to be 91.9%.
For `CN(C)C(=O)Oc1ccc[n+](C)c1` [Pyridostigmine bromide], for the setting “compound concentration: 3 uM”, the “HMGB1-induced TNF-alpha production” value was determined as 97%.
The same measure, in the same setting: as for `CN(C)C(=O)Oc1ccc[n+](C)c1`, the figure is 86.5%.
The same measure, in the same setting: the figure for `C#CCN(C)[C@H](C)Cc1ccccc1` is 80%; for `C#CCN(C)[C@H](C)Cc1ccccc1` [Benzeneethanamine, N,Alpha-dimethyl-N-2-propynyl-(R)- [CAS]] it is 102%.
The same measure, in the same setting: as for `C#CCN(C)[C@H](C)Cc1ccccc1` [Selegiline hydrochloride], the figure is 84.4%.
With `C=C[C@H]1CN2CC[C@H]1C[C@H]2c1[nH]c2ccccc2c1CCO` [Cinchonamine], the “HMGB1-induced TNF-alpha production” value under setting [1] came out at 76.7%.
For the compound `CN(C)C(=O)Oc1cccc([N+](C)(C)C)c1`, the “HMGB1-induced TNF-alpha production” value (compound concentration: 3 uM) is 92.4%.
The same measure, in the same setting: as for `CN(C)C(=O)Oc1cccc([N+](C)(C)C)c1` [Neostigmine], the figure is 126%; as for `CN(C)C(=O)Oc1cccc([N+](C)(C)C)c1` [Neostigmine bromide], 94.5 ± 32%.
